Measurements published in the supplement of paper PMC8728848.
The other results are listed elsewhere or left out.

Columns and labels:
Test in all cases: glycan array binding signal (z-score within array); higher = stronger binding
Conditions in all cases: glycan notation: IUPAC condensed, linker removed
Man(a1-2)Man(a1-3)Man = biological target: Man(a1-2)Man(a1-3)Man
How it was run: (§1)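 Columns mapping to the same glycan were averaged after glycan names were converted to IUPAC-condensed notation. The data come from 3228 arrays in the Consortium for Functional Glycomics database, limited to those with an available protein sequence. Binding is reported as a within-array Z-score averaged across arrays of one protein sequence and across linkers.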

[1] = biological target: Man(a1-2)Man(a1-3)[Man(a1-2)Man(a1-6)]Man
How it was run: as §1

[2] = biological target: Man(a1-2)Man(a1-3)[Man(a1-2)Man(a1-6)]Man(a1-6)[Man(a1-2)Man(a1-2)Man(a1-3)]Man
How it was run: as §1

[3] = biological target: Man(a1-2)Man(a1-3)[Man(a1-2)Man(a1-6)]Man(a1-6)[Man(a1-2)Man(a1-2)Man(a1-3)]Man(b1-4)GlcNAc(b1-4)GlcNAc
How it was run: as §1

[4] = biological target: Man(a1-2)Man(a1-3)[Man(a1-6)]Man(a1-6)[Man(a1-2)Man(a1-3)]Man(b1-4)GlcNAc(b1-4)GlcNAc
How it was run: as §1

[5] = biological target: Man(a1-2)Man(a1-6)[Man(a1-3)]Man(a1-6)[Man(a1-2)Man(a1-2)Man(a1-3)]Man
How it was run: as §1

[6] = biological target: Man(a1-2)Man(a1-6)[Man(a1-3)]Man(a1-6)[Man(a1-2)Man(a1-2)Man(a1-3)]Man(b1-4)GlcNAc(b1-4)GlcNAc
How it was run: as §1

Man(a1-3)[Man(a1-6)]Man = biological target: Man(a1-3)[Man(a1-6)]Man
How it was run: as §1

[7] = biological target: Man(a1-3)[Man(a1-6)]Man(a1-6)[Man(a1-2)Man(a1-3)]Man(b1-4)GlcNAc(b1-4)GlcNAc
How it was run: as §1

[8] = biological target: Man(a1-3)[Man(a1-6)]Man(a1-6)[Man(a1-3)]Man
How it was run: as §1

[9] = biological target: Man(a1-3)[Man(a1-6)]Man(a1-6)[Man(a1-3)]Man(b1-4)GlcNAc(b1-4)GlcNAc
How it was run: as §1

[10] = biological target: Man(a1-3)[Man(a1-6)]Man(b1-4)GlcNAc(b1-4)GlcNAc
How it was run: as §1

[11] = biological target: Man(a1-3)[Man(a1-6)]Man(b1-4)GlcNAc(b1-4)[Fuc(a1-6)]GlcNAc
How it was run: as §1

Man(a1-6)Man = biological target: Man(a1-6)Man
How it was run: as §1

Man(b1-4)GlcNAc = biological target: Man(b1-4)GlcNAc
How it was run: as §1

Neu5Ac(a2-3)Gal = biological target: Neu5Ac(a2-3)Gal
How it was run: as §1

[12] = biological target: Neu5Ac(a2-3)Gal(b1-3)GalNAc
How it was run: as §1

[13] = biological target: Neu5Ac(a2-3)Gal(b1-3)GalNAc(b1-3)Gal(a1-4)Gal(b1-4)Glc
How it was run: as §1

[14] = biological target: Neu5Ac(a2-3)Gal(b1-3)GalNAc(b1-4)[Neu5Ac(a2-3)]Gal(b1-4)Glc
How it was run: as §1

[15] = biological target: Neu5Ac(a2-3)Gal(b1-3)GalNAc(b1-4)[Neu5Ac(a2-8)Neu5Ac(a2-3)]Gal(b1-4)Glc
How it was run: as §1

[16] = biological target: Neu5Ac(a2-3)Gal(b1-3)GalNAc6S
How it was run: as §1

[17] = biological target: Neu5Ac(a2-3)Gal(b1-3)GlcNAc
How it was run: as §1

[18] = biological target: Neu5Ac(a2-3)Gal(b1-3)GlcNAc(b1-2)Man
How it was run: as §1

[19] = biological target: Neu5Ac(a2-3)Gal(b1-3)GlcNAc(b1-2)Man(a1-3)[GlcNAc(b1-4)][Neu5Ac(a2-3)Gal(b1-3)GlcNAc(b1-2)Man(a1-6)]Man(b1-4)GlcNAc(b1-4)GlcNAc
How it was run: as §1

[20] = biological target: Neu5Ac(a2-3)Gal(b1-3)GlcNAc(b1-2)Man(a1-3)[Neu5Ac(a2-3)Gal(b1-3)GlcNAc(b1-2)Man(a1-6)]Man(b1-4)GlcNAc(b1-4)GlcNAc
How it was run: as §1

[21] = biological target: Neu5Ac(a2-3)Gal(b1-3)GlcNAc(b1-3)Gal(b1-3)GlcNAc
How it was run: as §1

[22] = biological target: Neu5Ac(a2-3)Gal(b1-3)GlcNAc(b1-3)Gal(b1-4)GlcNAc
How it was run: as §1

[23] = biological target: Neu5Ac(a2-3)Gal(b1-3)GlcNAc(b1-3)GalNAc
How it was run: as §1

[24] = biological target: Neu5Ac(a2-3)Gal(b1-3)GlcNAc(b1-4)Gal(b1-4)Glc
How it was run: as §1

[25] = biological target: Neu5Ac(a2-3)Gal(b1-3)GlcNAc(b1-6)GalNAc
How it was run: as §1

[26] = biological target: Neu5Ac(a2-3)Gal(b1-3)GlcNAc6S
How it was run: as §1

[27] = biological target: Neu5Ac(a2-3)Gal(b1-3)[Fuc(a1-4)]GlcNAc
How it was run: as §1

[28] = biological target: Neu5Ac(a2-3)Gal(b1-3)[Fuc(a1-4)]GlcNAc(b1-3)Gal(b1-3)[Fuc(a1-4)]GlcNAc
How it was run: as §1

[29] = biological target: Neu5Ac(a2-3)Gal(b1-3)[Fuc(a1-4)]GlcNAc(b1-3)Gal(b1-4)[Fuc(a1-3)]GlcNAc
How it was run: as §1

[30] = biological target: Neu5Ac(a2-3)Gal(b1-3)[GlcNAc(b1-6)]GalNAc
How it was run: as §1

[31] = biological target: Neu5Ac(a2-3)Gal(b1-3)[Neu5Ac(a2-6)]GalNAc
How it was run: as §1

[32] = biological target: Neu5Ac(a2-3)Gal(b1-3)[Neu5Ac(a2-6)]GlcNAc(b1-3)[Fuc(a1-3)[Gal(b1-4)]GlcNAc(b1-6)]Gal(b1-4)Glc
How it was run: as §1

B1: RbmA (Vibrio cholerae), A0A2H4NFB8 (protein)
chain: MSNFKGSIMNKRHYYLASCLALLFSTASYAEVDCELQPVIEANLSLNQNQLASNGGYISSQLGIRNESCETVKFKYWLSIKGPEGIYFPAKAVVGVDTAQQESDALTDGRMLNVTRGFWVPEYMADGKYTVSLQVVAENGEVFKANQEFVKGGDLNSLPELNGLTIDIKNQFGINSVESTGGFVPFTIDLNNGREGEAKVEFWMTAVGPDGLIIPVHSREKWMIIAGNTFSKVRGINFDKSYPAGEYTINAQVVDIVSGERVEQLMTVVKK
glycan array binding signal (z-score) (Man(a1-2)Man(a1-3)Man): 0.268
glycan array binding signal (z-score) [1]: 2.4
glycan array binding signal (z-score) [2]: -0.653
glycan array binding signal (z-score) [3]: 0.213
glycan array binding signal (z-score) [4]: -0.965
glycan array binding signal (z-score) [5]: 0.014
glycan array binding signal (z-score) [6]: 0.833
glycan array binding signal (z-score) (Man(a1-3)[Man(a1-6)]Man): 0.76
glycan array binding signal (z-score) [7]: -0.755
glycan array binding signal (z-score) [8]: -0.166
glycan array binding signal (z-score) [9]: -0.909
glycan array binding signal (z-score) [10]: -0.548
glycan array binding signal (z-score) [11]: -0.315
glycan array binding signal (z-score) (Man(a1-6)Man): -0.678
glycan array binding signal (z-score) (Man(b1-4)GlcNAc): -0.294
glycan array binding signal (z-score) (Neu5Ac(a2-3)Gal): 0.218
glycan array binding signal (z-score) [12]: 0.069
glycan array binding signal (z-score) [13]: -0.315
glycan array binding signal (z-score) [14]: -0.785
glycan array binding signal (z-score) [15]: -0.82
glycan array binding signal (z-score) [16]: -0.14
glycan array binding signal (z-score) [17]: -0.006
glycan array binding signal (z-score) [18]: 0.176
glycan array binding signal (z-score) [19]: -0.908
glycan array binding signal (z-score) [20]: -0.364
glycan array binding signal (z-score) [21]: -0.516
glycan array binding signal (z-score) [22]: -0.515
glycan array binding signal (z-score) [23]: 0.638
glycan array binding signal (z-score) [24]: -0.341
glycan array binding signal (z-score) [25]: -0.144
glycan array binding signal (z-score) [26]: -0.198
glycan array binding signal (z-score) [27]: -1.17
glycan array binding signal (z-score) [28]: 1.84
glycan array binding signal (z-score) [29]: -1.06
glycan array binding signal (z-score) [30]: 1.15
glycan array binding signal (z-score) [31]: 0.382
glycan array binding signal (z-score) [32]: 2.23
